Measured values published in the supplement of paper PMC8256030.
“And” between values parts separate entries of the source, which are not always exact repeats. Equal entries are not always repeated. The list shows a part of the results. Single values are uncertain here, since repeats match poorly.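 HEK293T cells were given each compound shortly before transfection with a reporter in which red mCherry is followed by the SARS-CoV-2 frameshift element and then GFP in the −1 frame, so GFP appears only after frameshifting.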

Tested on: SARS-CoV-2 -1 PRF reporter mCherry-FSE-GFP(-1)
Assay: percent effect, decrease of GFP/mCherry ratio (-1 PRF reporter) relative to controls; higher = stronger frameshift inhibition
Details: 10 µM; 24 h; HEK293T

Compound | percent effect
c1cnc2cc3c(cc2n1)[C@@H]1CNC[C@H]3C1 [varenicline] | 0.345%
Cc1nc2ccccn2c(=O)c1CCN1CCC(C(=O)c2ccc(F)cc2)CC1 [pirenperone] | -0.52%
O=C1Cc2cc(CCN3CCN(c4nsc5ccccc45)CC3)c(Cl)cc2N1 | 1.29%
Cc1[nH]c(C)c(Cl)c(=O)c1Cl | 0.4%
CSc1ccc(OCc2ncc([N+](=O)[O-])n2C)cc1 [fexinidazole] | -3.98%
CC(=O)Nc1c(I)c(C(=O)N[C@H]2C(O)O[C@H](CO)[C@@H](O)[C@@H]2O)c(I)c(N(C)C(C)=O)c1I (some centres undefined) [Amipaque] | -5.5% and -3.19%
CC[C@@]1(O)C(=O)OCc2c1cc1n(c2=O)Cc2cc3c([N+](=O)[O-])cccc3nc2-1 [rubitecan] | 1.99%
CCCCC(CC)COc1ccc(-c2nc(-c3ccc(OC)cc3)nc(-c3ccc(OCC(CC)CCCC)cc3O)n2)c(O)c1 (centres undefined) | -2.88%
COc1cc(N)c(Cl)cc1C(=O)NC1CCN(Cc2ccccc2)CC1 [clebopride] | -2.25%
C1CCC(C(CC2CCCCN2)C2CCCCC2)CC1 (centres undefined) [perhexiline] | -1.02%
Nc1nc(=O)[nH]cc1F | -0.125%
COc1ccc(-c2cc(=O)c3c(O)cc(O[C@@H]4O[C@H](CO[C@@H]5O[C@@H](C)[C@H](O)[C@@H](O)[C@H]5O)[C@@H](O)[C@H](O)[C@H]4O)cc3o2)cc1O [diosmin] | 2.04% and -4.84%
O=C1O[C@H]([C@@H](O)CO)C(O)=C1O | -1.17%
O=C(O)c1ccccc1OP(=O)(O)O [fosfosal] | 0.83%
Clc1cc(-c2ccccc2)ccc1OCCCN1CCOCC1 [chlordimorine] | -4.85%
CCCCc1nc(Cl)c(CO)n1Cc1ccc(-c2ccccc2-c2nnn[nH]2)cc1 [Losartan potassium] | -5.33%
CC1(CN2CCC(n3c(=O)[nH]c4ccccc43)CC2)OCc2ccccc2-n2cccc21 (centres undefined) [zaldaride] | -4.05%
CCCc1c(SCCCOc2ccc(C(C)=O)c(OCCCC(=O)O)c2CCC)ccc(C(C)=O)c1O [tipelukast] | 2.87%
COCCc1ccccn1 [metyridine] | -2.74%
CO[C@H]1C[C@@H]2CC[C@@H](C)[C@@](O)(O2)C(=O)C(=O)N2CCCC[C@H]2C(=O)O[C@H]([C@H](C)C[C@@H]2CC[C@@H](O)[C@H](OC)C2)CC(=O)[C@H](C)/C=C(\C)[C@@H](O)[C@@H](OC)C(=O)[C@H](C)C[C@H](C)/C=C/C=C/C=C/1C [Sirolimus] | 1.99%

Molecules listed so far with fluorine (2):
Compound | percent effect
Cc1nc2ccccn2c(=O)c1CCN1CCC(C(=O)c2ccc(F)cc2)CC1 [pirenperone] | -0.52%
Nc1nc(=O)[nH]cc1F | -0.125%

Next records follow:

Compound | percent effect
CCCc1nc(C(C)(C)O)c(C(=O)O)n1Cc1ccc(-c2ccccc2-c2nnn[nH]2)cc1 [olmesartan] | 0.825% and 0.592%
Nc1nc2c([nH]1)c(=O)n(CC1CC1)c(=O)n2CC1CC1 [cipamfylline] | -6.59%
C[C@]12CC[C@@H]3c4ccc(O)cc4C[C@@H](CCCCCCCCC[S+]([O-])CCCC(F)(F)C(F)(F)F)[C@H]3[C@@H]1CC[C@@H]2O (some centres undefined) [Faslodex] | -7.99%
NC(=O)C1=CN([C@@H]2O[C@H](COP(=O)(O)OP(=O)(O)OC[C@H]3O[C@@H](n4cnc5c(N)ncnc54)[C@H](O)[C@@H]3O)[C@@H](O)[C@H]2O)C=CC1 | -8.08%
OC[C@@H](O)CN1CCN(c2ccccc2)CC1 [levodropropizine] | -8.8%
Cc1ccc(C(=O)N(CCCN)[C@@H](c2nc3cc(Cl)ccc3c(=O)n2Cc2ccccc2)C(C)C)cc1 [ispinesib] | -9.98%
CCN(CCCc1ccccc1)CCCc1ccccc1 | -3.65%
NC[C@H]1CC[C@H](C(=O)O)CC1 [tranexamic acid] | -3%
CC1(NC2=NS(=O)(=O)c3sc(Cl)cc3N2)CC1 | -6.67%
CCCCC[C@H](O)/C=C/[C@@H]1[C@H]2C/C(=C/CCCC(=O)O)O[C@H]2C[C@H]1O [Epoprostenol] | 0.346%
CC(C)CCC[C@@H](C)[C@H]1CC[C@H]2[C@@H]3CC=C4C[C@@H](O)CC[C@]4(C)[C@H]3CC[C@]12C | -3.7%
CN1CCC(OC(=O)C(Oc2ccc(Cl)cc2)Oc2ccc(Cl)cc2)CC1 [lifibrate] | -9.76%
C[C@@H]1C[C@H]2[C@@H]3CCC4=CC(=O)C=C[C@]4(C)[C@@]3(Cl)[C@@H](O)C[C@]2(C)[C@@]1(O)C(=O)CCl [mometasone] | 0.849%
O=C1CCc2ccc(OCCCCN3CCN(c4cccc(Cl)c4Cl)CC3)cc2N1 [aripiprazole] | -2.32% and -6.57%
CCC1(CC)O[C@@H]2C[C@H]3[C@@H]4CCC5=CC(=O)C=C[C@]5(C)[C@@]4(F)[C@@H](O)C[C@]3(C)[C@]2(C(=O)CO)O1 [amcinafal] | -5.73%
CC[C@@H]([C@H](C)O)n1ncn(-c2ccc(N3CCN(c4ccc(OC[C@@H]5CO[C@@](Cn6cncn6)(c6ccc(F)cc6F)C5)cc4)CC3)cc2)c1=O [Posaconazole] | -5.12%
COc1ccc2cc([C@H](C)C(=O)O)ccc2c1 [Naproxen] | 1.47%
CCC(C)CCCCC(=O)NCC[C@@H]1NC(=O)[C@H](CC(C)C)NC(=O)[C@H](CCN)NC(=O)[C@H](CC(C)C)NC(=O)[C@H](CCN)NC(=O)[C@H](CCN)NC(=O)[C@H](CCN)NC(=O)[C@H]([C@@H](C)O)NC1=O (some centres undefined) [colistimethate sodium] | -8.53%
CN(C)c1ccc(O)c2c1C[C@H]1C[C@H]3[C@H](N(C)C)C(=O)C(C(N)=O)=C(O)[C@@]3(O)C(=O)C1=C2O [Minocycline] | 3.86%
